The results in this text go back to patent US20250154123A1, “COOLING COMPOUNDS AND COMPOSITIONS” (V. MANE FILS, priority 2022, published 2025).

The series in a line: Olfactive description.
As to `C=C(C)[C@@H]1CC[C@@H](C)C[C@H]1C(CO)CO` [Compound 35, 2-((1R,2R,5R)-5-methyl-2-(prop-1-en-2-yl)cyclohexyl)propane-1,3-diol], the Olfactive description entry is recorded as “Almost odorless, aromatic”.

As for `CC(C)[C@@H]1CC[C@@H](C)CC12COC(c1ccccc1)OC2` (stereo partly drawn) [Compound 18, (7S,1OR)-7-isopropyl-10-methyl-3-phenyl-2,4-dioxaspiro[5.5]undecane], the Olfactive description result is “Weak, almond”.

For `CC(C)C1OCC2(CO1)C[C@H](C)CC[C@H]2C(C)C` (stereo partly drawn) [Compound 15, (7S,1OR)-3,7-diisopropyl-10-methyl-2,4-dioxaspiro[5.5]undecane], the Olfactive description result is reported as “Weak, chocolate”.

`CCC1OCC2(CO1)C[C@H](C)CC[C@H]2C(C)C` (stereo partly drawn) [Compound 4, (7S,1OR)-3-ethyl-7-isopropyl-10-methyl-2,4-dioxaspiro[5.5]undecane]: the Olfactive description entry was “Fresh, fruity, exotic”.

Regarding `CC(C)[C@@H]1CC[C@@H](C)CC1(CO)CO` [Compound 1, ((2S,5R)-2-isopropyl-5-methylcyclohexane-1,1-diyl)dimethanol], the Olfactive description entry is recorded as “Almost odorless, fresh”.

With `C=C(C)[C@@H]1CC[C@@H](C)C[C@H]1C1COC(C)OC1` (stereo partly drawn) [Compound 36, 2-methyl-5-((1R,2R,5R)-5-methyl-2-(prop-1-en-2-yl)cyclohexyl)-1,3-dioxane], the Olfactive description result was “Almost odorless, solvent”.

With `CC(C)[C@@H]1CC[C@@H](C)CC1(CO)COCc1ccccc1` (stereo partly drawn) [Compound 38, ((2S,5R)-1-((benzyloxy)methyl)-2-isopropyl-5-methylcyclohexyl) methanol], the Olfactive description entry is given as “Almost odorless, solvent”.

Consider `CC(C)[C@@H]1CC[C@@H](C)C[C@H]1C(CO)CO` [Compound 37, 2-((1R,2S,5R)-2-isopropyl-5-methylcyclohexyl)propane-1,3-diol], for which the Olfactive description entry is “Almost odorless, rosy”.

Take `CC(C)[C@@H]1CC[C@@H](C)CC12COC1(C[C@H](C)CC[C@H]1C(C)C)OC2` (stereo partly drawn) [Compound 7, (1S,4R,10S,13R)-1,10-diisopropyl-4,13-dimethyl-7,16-dioxadispiro [5.2.5^90.2^6]hexadecane]: the Olfactive description entry is on record as “Odorless”.

Take `COCC1(COC)C[C@H](C)CC[C@H]1C(C)C` [Compound 17, (2S,5R)-2-isopropyl-1,1-bis(methoxymethyl)-5-methylcyclohexane]: the Olfactive description entry was “Fresh, weak, grapefruit”.

`CC1CC(C)(C)CC(CO)(CO)C1` (stereo not drawn) [Compound 10, (3,3,5-trimethylcyclohexane-1,1-diyl)dimethanol]: the Olfactive description entry was “Odorless”.

As for `CC(C)[C@@H]1CC[C@@H](C)CC1(C=O)C=O` [Compound 8, (2S,5R)-2-isopropyl-5-methylcyclohexane-1,1-dicarbaldehyde], the Olfactive description entry is given as “Fresh, minty”.

Take `CC1(C)CCCC(CO)(CO)C1` [Compound 20, (3,3-dimethylcyclohexane-1,1-diyl)dimethanol]: the Olfactive description result is “Almost odorless, solvent”.

In the case of `CSCCC1OCC2(CO1)C[C@H](C)CC[C@H]2C(C)C` (stereo partly drawn) [Compound 25, (7S,1OR)-7-isopropyl-10-methyl-3-(2-(methylthio)ethyl)-2,4-dioxaspiro [5.5]undecane], the Olfactive description entry is reported as “Metallic, garlic, sardine”.

As for `CCC(C)C1CCCCC1(CO)CO` (stereo not drawn) [Compound 27, (2-(sec-butyl)cyclohexane-1,1-diyl)dimethanol], the Olfactive description result is on record as “Almost odorless, solvent”.

As for `CCOC(=O)C1OCC2(CO1)C[C@H](C)CC[C@H]2C(C)C` (stereo partly drawn) [Compound 28, Ethyl (7S,1OR)-7-isopropyl-10-methyl-2,4-dioxaspiro[5.5]undecane-3-carboxylate], the Olfactive description result is reported as “Odorless”.

As for `COc1cc(C2OCC3(CO2)C[C@H](C)CC[C@H]3C(C)C)ccc1O` (stereo partly drawn) [Compound 5, 4-((7S,10R)-7-isopropyl-10-methyl-2,4-dioxaspiro[5.5]undecan-3-yl)-2-methoxyphenol], the Olfactive description result is recorded as “Almost odorless, vanilla”.

Consider `CC1CC(C)(C)CC2(COC(C)(C)OC2)C1` (stereo not drawn) [Compound 12, 3,3,8,8,10-pentamethyl-2,4-dioxaspiro[5.5]undecane], for which the Olfactive description entry is recorded as “Woody, fruity”.

On to `CC1CC(C)(C)CC2(COC(C)OC2)C1` (stereo not drawn) [Compound 11, 3,8,8,10-tetramethyl-2,4-dioxaspiro[5.5]undecane], for which the Olfactive description result is “Woody, ambery, fruity”.

In the case of `CC(C)[C@@H]1CC[C@@H](C)CC1(COC(=O)CCC(=O)O)COC(=O)CCC(=O)O` [Compound 21, 4,4′-((((2S,5R)-2-isopropyl-5-methylcyclohexane-1,1-diyl)bis (methylene))bis(oxy))bis(4-oxobutanoic acid)], the Olfactive description entry is “Odorless”.

With `CC(C)[C@@H]1CC[C@@H](C)CC1(CCO)CCO` [Compound 29, 2,2′-((2S,5R)-2-isopropyl-5-methylcyclohexane-1,1-diyl)bis(ethan-1-ol)], the Olfactive description entry was “Almost odorless, solvent”.

On to `CC1OCC2(CO1)C[C@H](C)CC[C@H]2C(C)C` (stereo partly drawn) [Compound 2, (7S,1OR)-7-isopropyl-3,10-dimethyl-2,4-dioxaspiro[5.5]undecane], for which the Olfactive description result is “Fresh, minty, fruity”.

On to `CC1OCC2(CCCC(C)(C)C2)CO1` (stereo not drawn) [Compound 26, 3,8,8-trimethyl-2,4-dioxaspiro[5.5]undecane], for which the Olfactive description entry is reported as “Camphor, violet, frais”.

`CCCC1OCC2(CO1)C[C@H](C)CC[C@H]2C(C)C` (stereo partly drawn) [Compound 14, (7S,1OR)-7-isopropyl-10-methyl-3-propyl-2,4-dioxaspiro[5.5]undecane]: the Olfactive description result is given as “Cheesy, glue”.

As for `CC(C)[C@@H]1CC[C@@H](C)CC1(C(C)O)C(C)O` (stereo partly drawn) [Compound 34, 1,1′-((2S,5R)-2-isopropyl-5-methylcyclohexane-1,1-diyl)bis(ethan-1-ol)], the Olfactive description result was “Almost odorless, fresh”.

With `CC(C)[C@@H]1CC[C@@H](C)CC12COCOC2` [Compound 6, (7S,1OR)-7-isopropyl-10-methyl-2,4-dioxaspiro[5.5]undecane], the Olfactive description entry is “Weak, red fruits”.

As for `CCC(C)C1CCCCC12COC(C)OC2` (stereo not drawn) [Compound 31, 7-(sec-butyl)-3-methyl-2,4-dioxaspiro[5.5]undecane], the Olfactive description entry was “Animalic, blackcurrent, ambery”.

Consider `CC(C)C1CCC(C)(C)CC1(CO)CO` (single isomer, unassigned) [Compound 30, (2-isopropyl-5,5-dimethylcyclohexane-1,1-diyl)dimethanol], for which the Olfactive description entry is “Odorless”.

For `CC(C)[C@@H]1CC[C@@H](C)CC12COC(c1cccs1)OC2` (stereo partly drawn) [Compound 24, (7S,1OR)-7-isopropyl-10-methyl-3-(thiophen-2-yl)-2,4-dioxaspiro[5.5]undecane], the Olfactive description result is listed as “Weak, green, bread crust”.

For the compound `CCC(C)C1OCC2(CO1)C[C@H](C)CC[C@H]2C(C)C` (stereo partly drawn) [Compound 16, (7S,1OR)-3-(sec-butyl)-7-isopropyl-10-methyl-2,4-dioxaspiro[5.5]undecane], the Olfactive description entry is “Weak, ethereal”.

Regarding `CC(C)[C@@H]1CC[C@@H](C)CC12COC(c1ccccn1)OC2` (stereo partly drawn) [Compound 23, 2-((7S,10R)-7-isopropyl-10-methyl-2,4-dioxaspiro[5.5]undecan-3-yl) pyridine], the Olfactive description entry is “Green, mimosa”.

Regarding `CC(=O)OCC1(COC(C)=O)C[C@H](C)CC[C@H]1C(C)C` [Compound 9, ((2S,5R)-2-isopropyl-5-methylcyclohexane-1,1-diyl)bis(methylene) diacetate], the Olfactive description result is given as “Odorless”.

`CC(C)[C@@H]1CC[C@@H](C)CC1(CO)C(=O)O` (stereo partly drawn) [Compound 39, (2S,5R)-1-(hydroxymethyl)-2-isopropyl-5-methylcyclohexane-1-carboxylic acid]: the Olfactive description result is “Almost odorless”.

With `CC(C)[C@@H]1CC[C@@H](C)CC12COC(C)(c1ccccc1)OC2` (stereo partly drawn) [Compound 22, (7S,1OR)-7-isopropyl-3,10-dimethyl-3-phenyl-2,4-dioxaspiro[5.5]undecane], the Olfactive description entry was “Powdery, vanilla, mimosa”.

For the compound `CCC1(C)OCC2(CO1)C[C@H](C)CC[C@H]2C(C)C` (stereo partly drawn) [Compound 13, (7S,1OR)-3-ethyl-7-isopropyl-3,10-dimethyl-2,4-dioxaspiro[5.5]undecane], the Olfactive description result is on record as “Powerful, woody, algae”.

Consider `CC1(C)CC(C)(C)CC(CO)(CO)C1` [Compound 40, (3,3,5,5-tetramethylcyclohexane-1,1-diyl)dimethanol], for which the Olfactive description entry is “Almost odorless, fresh”.

Consider `CC(C)[C@@H]1CC[C@@H](C)CC12COC(C)(C)OC2` [Compound 3, (7S,1OR)-7-isopropyl-3,3,10-trimethyl-2,4-dioxaspiro[5.5]undecane], for which the Olfactive description result is “Weak, fresh, woody”.

As to `CC(=O)OCC1(CO)C[C@H](C)CC[C@H]1C(C)C` (stereo partly drawn) [Compound 32, ((2S,5R)-1-(hydroxymethyl)-2-isopropyl-5-methylcyclohexyl)methyl acetate], the Olfactive description result is recorded as “Almost odorless, fresh”.

As to `CC1OCC2(CO1)CC(C)(C)CCC2C(C)C` (stereo not drawn) [Compound 33, 7-isopropyl-3,10,10-trimethyl-2,4-dioxaspiro[5.5]undecane], the Olfactive description result is recorded as “Woody, dirty, ambery”.
